Results as given in US8653285B2 (Nippon Zoki Pharmaceutical Co., Ltd., priority 2008, dated 2014).

Assay: Index ID50 (cerebral receptor binding test) divided by ED50 (vascular hyperpermeability test)
Conditions: ID50 of Table 11 divided by ED50 of Table 10

SMILES | ID50 (mg/kg)/ ED50 (mg/kg)
CN(C)CC/C=C1/c2ccccc2CCc2sc(C(=O)O)cc21 [Compound 16, (Z)-[4-(3-Dimethylaminopropylidene)-9,10-dihydro-4H-1-thiabenzo[f]azulen-2-yl]carboxylic acid] | 153.2
CN(C)CC/C=C1/c2ccccc2CCc2sc(CC(=O)O)cc21.Cl [Compound 18, (Z)-[4-(3-Dimethylaminopropylidene)-9,10-dihydro-4H-1-thiabenzo[f]azulen-2-yl]acetic acid hydrochloride] | 33.3
CN(C)CC/C=C1\c2cc(CC(=O)O)ccc2OCc2ccsc21 [Compound 19, (E)-[4-(3-Dimethylaminopropylidene)-4,10-dihydro-9-oxa-3-thiabenzo[f]azulen-6-yl]acetic acid] | 25.3
CN(C)CC/C=C1/c2cc(CC(=O)O)ccc2OCc2ccsc21 [Compound 20, (Z)-[4-(3-Dimethylaminopropylidene)-4,10-dihydro-9-oxa-3-thiabenzo[f]azulen-6-yl]acetic acid] | 242.9
CN(C)CCC=C1c2cc(C(C)(C)C(=O)O)ccc2OCc2ccsc21 [Compound 22, (E,Z)-2-[4-(3-Dimethylaminopropylidene)-4,10-dihydro-9-oxa-3-thiabenzo[f]azulen-6-yl]-2-methylpropionic acid] | 18.7
CCOC(=O)C(C)(C)c1cc2c(s1)C(=O)Cc1ccccc1C2=CCCN(C)C [Compound 24, Ethyl (E,Z)-2-[4-(3-dimethylaminopropylidene)-10-oxo-9,10-dihydro-4H-1-thiabenzo[f]azulen-2-yl]-2-methylpropionate hydrochloride] | 174.0
CNCC/C=C1\c2cc(C(C)(C)C(=O)O)ccc2OCc2ccsc21 [Compound 25, (E)-{2-Methyl-2-[4-(3-methylaminopropylidene)-4,10-dihydro-9-oxa-3-thiabenzo [f]azulen-6-yl]}propionic acid] | >35.1
O=C(O)Cc1ccc2c(c1)/C(=C\CCN1CCCC1)c1sccc1CO2 [Compound 26, (E)-{4-[3-(Pyrrolidin-1-yl)propylidene]-4,10-dihydro-9-oxa-3-thiabenzo[f]azulen-6-yl}acetic acid] | 518.6
O=C(O)Cc1ccc2c(c1)/C(=C/CCN1CCCC1)c1sccc1CO2 [Compound 27, (Z)-{4-[3-(Pyrrolidin-1-yl)propylidene]-4,10-dihydro-9-oxa-3-thiabenzo[f]azulen-6-yl}acetic acid] | >885
CN(C)CC/C=C1/c2cc(CC(=O)O)ccc2OCc2sccc21 [Compound 28, (Z)-[4-(3-Dimethylaminopropylidene)-4,10-dihydro-9-oxa-1-thiabenzo[f]azulen-6-yl]acetic acid] | >58.5
CN(C)CC/C=C1\c2cc(CC(=O)O)ccc2OCc2sccc21 [Compound 29, (E)-[4-(3-Dimethylaminopropylidene)-4,10-dihydro-9-oxa-1-thiabenzo[f]azulen-6-yl]acetic acid] | >237
CCN(C)CC/C=C1\c2cc(CC(=O)O)ccc2OCc2ccsc21 [Compound 30] | 316.7
O=C(O)Cc1ccc2c(c1)/C(=C/CCN1CCOCC1)c1sccc1CO2 [Compound 33, (Z)-{4-[3-(Morpholin-4-yl)propylidene]-4,10-dihydro-9-oxa-3-thiabenzo[f]azulen-6-yl}acetic acid] | 70.3
O=C(O)Cc1ccc2c(c1)/C(=C\CCN1CCCCC1)c1sccc1CO2 [Compound 34, (E)-{4-[3-(Piperidin-1-yl)propylidene]-4,10-dihydro-9-oxa-3-thiabenzo[f]azulen-6-yl}acetic Acid] | 116.0
O=C(O)Cc1ccc2c(c1)/C(=C/CCN1CCCCC1)c1sccc1CO2 [Compound 35, (Z)-{4-[3-(Piperidin-1-yl)propylidene]-4,10-dihydro-9-oxa-3-thiabenzo[f]azulen-6-yl}acetic acid] | 657.0
O=C(O)Cc1ccc2c(c1)/C(=C/CCNCc1ccccc1)c1sccc1CO2 [Compound 43, (Z)-[4-(3-Benzylaminopropylidene)-4,10-dihydro-9-oxa-3-thiabenzo[f]azulen-6-yl]acetic acid] | >61.1
CN1CCN(CC/C=C2\c3cc(CC(=O)O)ccc3OCc3ccsc32)CC1 [Compound 50, (E)-{4-[3-(4-Methylpiperadin-1-yl)propylidene]-4,10-dihydro-9-oxa-3-thiabenzo[f]azulen-6-yl}acetic acid] | >59.7
CN(C)CC/C=C1/c2cc(CCC(=O)O)ccc2OCc2sccc21.Cl [Compound 57, (Z)-3-[4-(3-Dimethylaminopropylidene)-4,10-dihydro-9-oxa-1-thiabenzo[f]azulen-6-yl]propionic acid hydrochloride] | >800
O=C(O)CCc1ccc2c(c1)/C(=C\CCN1CCCC1)c1ccsc1CO2 [Compound 58, (E)-3-{4-[3-(Pyrrolidin-1-yl)propylidene]-4,10-dihydro-9-oxa-1-thiabenzo[f]azulen-6-yl}propionic acid] | 110.2
O=C(O)CCc1ccc2c(c1)/C(=C/CCN1CCCC1)c1ccsc1CO2 [Compound 59, (Z)-3-{4-[3-(Pyrrolidin-1-yl)propylidene]-4,10-dihydro-9-oxa-1-thiabenzo[f]azulen-6-yl}propionic acid] | >666.7
Cl.O=C(O)Cc1ccc2c(c1)/C(=C\CCN1CCCC1)c1sccc1CO2 [Compound 70, (E)-{4-[3-(Pyrrolidin-1-yl)propylidene]-4,10-dihydro-9-oxa-3-thiabenzo[f]azulen-6-yl}acetic acid hydrochloride] | 122.4
Cl.O=C(O)Cc1ccc2c(c1)/C(=C/CCN1CCCC1)c1sccc1CO2 [Compound 71, (Z)-{4-[3-(Pyrrolidin-1-yl)propylidene]-4,10-dihydro-9-oxa-3-thiabenzo[f]azulen-6-yl}acetic acid hydrochloride] | >96.4

Structures can show the parent of a compound that is named as a salt.
